# Reference: US20170044100A1, “INHIBITORS OF DRUG-RESISTANT MYCOBACTERIUM TUBERCULOSIS” (THE JOHNS HOPKINS UNIVERSITY, priority 2014, published 2017)
# Some of these results come from one statement about several compounds together.
# Key:
# M. tuberculosis H37Rv = assay type: cell-based, Mycobacterium tuberculosis; settings: 4× MIC
# Vero cells = assay: Cytotoxicity assay on Vero cells (alamar blue); settings: Vero cell line
Compound,colony forming units killed (M. tuberculosis H37Rv),IC50 for Vero cell viability (Vero cells) [µg/mL]
"Cc1cc(C)c2cc(C(=O)NC3CCCCCCC3)[nH]c2c1 [Compound 12, N-Cyclooctyl-4,6-dimethyl-1H-indole-2-carboxamide]",at least 4,–
"Cc1cc(C)c2cc(C(=O)NC3CCCCC3)[nH]c2c1 [Compound 3, N-Cyclohexyl-4,6-dimethyl-1H-indole-2-carboxamide]",–,> 64
"Cc1cc(C)c2cc(C(=O)NC3CCCCCC3)[nH]c2c1 [Compound 11, N-Cycloheptyl-4,6-dimethyl-1H-indole-2-carboxamide]",at least 4,–
